Experimental data published in article PMC5486644.
These are yes or no findings as the source states them, for the method shown. In cells and extracts the contact can be indirect. Some results given as binding are weak or reduced against the parent protein; the word gives no strength. For part of these data: Where a sequence is shown, tags or fusion partners need not be part of it.

Tests used:
[1] = target: T1, haemagglutinin (HA)-tagged protein tyrosine phosphatase-interacting protein 51 (PTPIP51), transfected in SH-SY5Y cells (human) (UniProt Q96TC7); assay: co-IP; SH-SY5Y cells transfected with PTPIP51-HA and control vector or α-synuclein (wild-type, A53T, A30P); PTPIP51 immunoprecipitated via the HA tag, endogenous VAPB detected by immunoblot; lysis in PBS with 1% Triton X-100
T1 sequence: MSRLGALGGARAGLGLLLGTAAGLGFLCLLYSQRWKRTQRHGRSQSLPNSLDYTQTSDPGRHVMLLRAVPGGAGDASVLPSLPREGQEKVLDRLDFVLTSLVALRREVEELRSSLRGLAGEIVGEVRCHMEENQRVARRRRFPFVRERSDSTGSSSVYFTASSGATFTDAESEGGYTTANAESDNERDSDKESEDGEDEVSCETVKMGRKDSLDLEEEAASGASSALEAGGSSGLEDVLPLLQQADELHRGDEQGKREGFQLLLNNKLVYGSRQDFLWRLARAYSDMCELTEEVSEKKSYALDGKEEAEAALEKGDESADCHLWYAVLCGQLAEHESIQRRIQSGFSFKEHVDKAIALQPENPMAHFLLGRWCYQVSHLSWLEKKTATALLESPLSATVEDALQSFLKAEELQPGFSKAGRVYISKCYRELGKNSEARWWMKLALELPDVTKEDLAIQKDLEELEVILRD

[2] = target: T2, endogenous PTPIP51 of SH-SY5Y cells (human (endogenous in SH-SY5Y)) (UniProt Q96TC7); assay: proximity ligation; VAPB-PTPIP51 Duolink assay with rabbit VAPB and rat PTPIP51 antibodies in fixed SH-SY5Y cells transfected with EGFP control vector or EGFP-α-synuclein (wild-type, A53T, A30P)
T2 sequence: T1 sequence

[3] = target: T3, endogenous PTPIP51 of iPS cell-derived dopaminergic neurons (human (endogenous in iPS cell-derived neurons)) (UniProt Q96TC7); assay: proximity ligation; VAPB-PTPIP51 Duolink assay in fixed iPS cell-derived dopaminergic neurons, NAS control and AST (SNCA triplication)
T3 sequence: T1 sequence

Substance	binding [1]	binding [2]	binding [3]
endogenous VAPB of SH-SY5Y cells (from UniProt O95292 1-243)	binds	binds	–
endogenous VAPB of iPS cell-derived dopaminergic neurons (from UniProt O95292 1-243)	–	–	binds
